Test results reported in paper PMC2776001.
These are yes or no findings as the source states them, for the method shown. Binding seen in cells or lysates may run through a third protein. Some entries that bind do so weakly or less than the wild type.

Amino acid sequences for entries named in this document (tags omitted). A change or cut given only in a name is not applied to a line headed by its entry.
UniProt Q9HC16: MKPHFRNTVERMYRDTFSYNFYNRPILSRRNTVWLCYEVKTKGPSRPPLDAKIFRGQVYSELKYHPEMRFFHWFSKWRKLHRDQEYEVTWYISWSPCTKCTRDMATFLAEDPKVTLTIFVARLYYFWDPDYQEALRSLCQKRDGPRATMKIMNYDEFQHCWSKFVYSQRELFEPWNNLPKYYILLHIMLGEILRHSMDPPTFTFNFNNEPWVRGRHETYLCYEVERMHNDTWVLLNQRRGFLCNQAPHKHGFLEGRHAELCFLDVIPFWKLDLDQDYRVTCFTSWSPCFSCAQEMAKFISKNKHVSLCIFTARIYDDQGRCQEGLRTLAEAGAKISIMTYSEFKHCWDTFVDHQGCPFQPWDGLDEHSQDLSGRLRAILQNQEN

Experiments:
Assay in all cases: co-IP; HeLa cells co-transfected with 2.5 ug each of untagged and C-terminally Myc-tagged A3G vectors; lysis in 0.5% Triton X-100, 287 mM NaCl, 2.68 mM KCl, 1.47 mM KH2PO4, Na2HPO4, pH 7.2; immunoprecipitation with Myc-specific monoclonal antibody 9E10; blot with A3G-specific Apo-C17
[1] = target: wild type human APOBEC3G carrying a C-terminal Myc epitope tag (human) (UniProt Q9HC16)
[2] = target: Myc-tagged A3G W127A (human) (UniProt Q9HC16)
[3] = target: Myc-tagged A3G Y124A (human) (UniProt Q9HC16)

binding [1] | binding [2] | binding [3] | Substance
binds |  |  | untagged A3G W127A (from UniProt Q9HC16 1-384)
binds |  |  | untagged A3G Y124A (from UniProt Q9HC16 1-384)
 | binds weakly | binds | untagged human APOBEC3G wild type (from UniProt Q9HC16 1-384)
